PubChem BioAssay AID1224826 – NIAID | 2016
The deposit covers about 17,000 reagents; shown is a random part of them. About 1,110 of all reagents (6.6%) were called active. 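Active means lowered or raised reporter signal; replicate intensities are raw and not normalised per plate.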 Further read-outs or replicates are left out here.

Purpose: 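Genes that change LPS-induced Tnf promoter activity in mouse macrophages when knocked down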 (primary screen)
Cell system: RAW264.7 G9 macrophages from mouse bearing reporters for p65 (GFP) and the Tnf promoter (mCherry)
Knock-down reagent: siRNA pool against mouse genes, 100 nM
Duration: 16 h of LPS stimulation, after 2 days of siRNA transfection
Challenge: bacterial lipopolysaccharide (Salmonella minnesota R595), 10 ng/ml
Detection: 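Imaged Tnf reporter mCherry in nuclei, minus background, normalised per plate to the median and expressed as robust z-scores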
Reading the numbers: Tnf reporter robust z-score: higher = stronger Tnf promoter reporter signal after LPS
Hit rule: 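Called active when robust z-score is at most -1.3, matching the median of the Tlr4 knock-down control, or over 3; control wells and wells with under 50 cells never active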
Calls: active = Tnf reporter clearly lowered or raised; inactive = no clear change in Tnf reporter

Target gene	Tnf reporter robust z-score	fewer than 50 cells in well	Call
Or8k53	0.42	enough cells in well	inactive
Ugt2b1	0.16	enough cells in well	inactive
Evc	-0.47	enough cells in well	inactive
Zfp160	-0.49	enough cells in well	inactive
Msi2	1.35	enough cells in well	inactive
Six3	0.81	enough cells in well	inactive
Ttc4	0.73	enough cells in well	inactive
Src		fewer than 50 cells per well; well left out of calls	inactive
Or2ak5	0.6	enough cells in well	inactive
Ankle1		fewer than 50 cells per well; well left out of calls	inactive
Maob	-0.11	enough cells in well	inactive
Map2	0.44	enough cells in well	inactive
Serinc1		fewer than 50 cells per well; well left out of calls	inactive
Cpt1c	0.44	enough cells in well	inactive
Trip6	-0.1	enough cells in well	inactive
Sgk1	1.18	enough cells in well	inactive
Ptpn3	-1.88	enough cells in well	active
Riok3	0.25	enough cells in well	inactive
Dnase1l3		fewer than 50 cells per well; well left out of calls	inactive

Active calls, of those listed so far:
Target gene	Tnf reporter robust z-score	fewer than 50 cells in well	Call
Ptpn3	-1.88	enough cells in well	active

The results go on.
Target gene	Tnf reporter robust z-score	fewer than 50 cells in well	Call
Vmn1r200	-0.62	enough cells in well	inactive
Ctdsp1	-0.5	enough cells in well	inactive
Tubgcp2	0.03	enough cells in well	inactive
Ksr1	-0.17	enough cells in well	inactive
Psg18	-0.8	enough cells in well	inactive
Emilin2	2.69	enough cells in well	inactive
Cep20	0.4	enough cells in well	inactive
Vps37d	2.51	enough cells in well	inactive
Or5b116	1.53	enough cells in well	inactive
Gpc5	-0.69	enough cells in well	inactive
Tmem114	1.88	enough cells in well	inactive
Uqcrh	0.75	enough cells in well	inactive
Ncoa3	-0.16	enough cells in well	inactive
Igf2	-0.31	enough cells in well	inactive
H2-T3	-0.85	enough cells in well	inactive
Kdr	1.75	enough cells in well	inactive
Cldn2	1.03	enough cells in well	inactive
Tex15	1.03	enough cells in well	inactive
Tacr1	-0.83	enough cells in well	inactive
Nfyb	-1.77	enough cells in well	active
Isca1	-1.71	enough cells in well	active
